# Library screen at single concentrations

The chains behind the UniProt entries cited, without tags or fusion partners.
UniProt P9WFT3, whole entry: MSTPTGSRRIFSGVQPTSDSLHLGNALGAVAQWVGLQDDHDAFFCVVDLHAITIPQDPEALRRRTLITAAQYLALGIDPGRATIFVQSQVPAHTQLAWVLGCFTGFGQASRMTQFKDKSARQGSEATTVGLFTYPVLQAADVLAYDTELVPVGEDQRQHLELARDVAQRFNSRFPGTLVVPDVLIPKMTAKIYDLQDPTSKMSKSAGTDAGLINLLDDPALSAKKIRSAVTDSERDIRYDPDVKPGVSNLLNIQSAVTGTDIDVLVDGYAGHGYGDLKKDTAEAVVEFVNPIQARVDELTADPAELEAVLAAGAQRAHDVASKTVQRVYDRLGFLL
UniProt P9WNZ1, whole entry: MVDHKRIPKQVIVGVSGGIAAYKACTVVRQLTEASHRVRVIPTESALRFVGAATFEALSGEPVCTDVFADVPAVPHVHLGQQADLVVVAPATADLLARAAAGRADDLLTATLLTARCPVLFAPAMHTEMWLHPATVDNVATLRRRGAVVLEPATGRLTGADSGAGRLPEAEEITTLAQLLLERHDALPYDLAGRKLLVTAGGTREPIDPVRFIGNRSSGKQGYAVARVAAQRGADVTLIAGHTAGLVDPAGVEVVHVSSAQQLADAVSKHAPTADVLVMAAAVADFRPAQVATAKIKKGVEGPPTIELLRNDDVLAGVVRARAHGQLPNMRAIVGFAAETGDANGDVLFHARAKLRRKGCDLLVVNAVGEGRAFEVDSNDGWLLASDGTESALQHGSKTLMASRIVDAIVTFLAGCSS

Leishmania in macrophages: 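Cell assay of Leishmania donovani living inside macrophages; the read-out is not stated. Concentration: 30 µM. The record gives no direction; compounds that gave an IC50 in retests scored well above the rest, so higher reads as stronger inhibition. Size under these conditions: about 69,000 compounds, about 1,000 of them at 50% or above in at least one test.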
MtTrpRS: 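Tryptophan-tRNA ligase, Mycobacterium tuberculosis (UniProt P9WFT3). Enzyme assay of tryptophanyl-tRNA synthetase; the read-out is not stated. Tested at 10 µM. Direction is not recorded; retested compounds ran higher, which suggests that high means inhibition. Of about 65,000 compounds tested this way, about 64 (0.098%) reached 50% or more in at least one test.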
Toxoplasma: 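Assay of Toxoplasma gondii numbers, read through their beta-galactosidase reporter with a colour substrate. Tested at 10 µM. Higher reads as fewer parasites (inferred from which compounds were picked for retests). Of about 67,000 compounds tested this way, about 260 (0.38%) reached 50% or more in at least one test.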
CoaBC: 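Coenzyme A biosynthesis protein CoaBC, Mycobacterium tuberculosis (UniProt P9WNZ1). Enzyme assay of CoaBC with a phosphate dye (Biomol Green) read at 650 nm. Tested at 30 µM. Higher reads as stronger inhibition, judged from the few compounds that gave an IC50. Most strong results did not repeat in a second test. Of about 67,000 compounds tested this way, about 40 (0.06%) reached 50% or more in at least one test.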

Values are the deposited “Percent Effect”, in %. The controls that fix the scale are not given in the record; negative values are as filed. The compounds are a random part of those screened. Two or more numbers in one place are separate tests of the same structure; such repeats can differ widely. A dash means the value is not listed here; it may have been measured.

| compound | Leishmania in macrophages | MtTrpRS | Toxoplasma | CoaBC |
|---|---|---|---|---|
| `Cn1cc(C[C@H]2[C@H](O)CCN2CC2CC2)cn1.O=C(O)C(F)(F)F` | 15.1 | - | 3.604 | - |
| `Nc1cc(-c2cccc3c2CCNC3)ncn1` | 3.63 | -3.015 | 23.62 | 0.4032 |
| `COC(=O)N1CCc2ccccc2C1C(=O)NCC(F)(F)F` (stereo not drawn) | -4.061 & 1.389 | 2.812 | -3.089 | 8.668 |
| `O=C1CN(CC2CC2)Cc2nc(NCc3ccccc3)sc21` | -7.773 & -5.712 | - | -0.3629 | -0.3614 |
| `COc1cc(OC)cc(N2CCC(NCc3ccsc3)C2=O)c1` (stereo not drawn) | -3.806 | -0.5482 | -1.892 | 0.7335 |
| `NC[C@H]1CC[C@H](C(NC(=O)c2ccccc2)c2ccccn2)CC1` (stereo partly drawn) | -2 | -0.9167 | -3.61 | 7.723 |
| `CC(=O)N1CCC2(CC1)[C@@H]1CN(Cc3cccnc3)C[C@@H]1C(=O)N2C` | - | -2.829 | - | -0.7634 |
| `[H][C@@]12CN(C(=O)c3cnccn3)C[C@]1([H])C(=O)N(Cc1csc(C)n1)C2` | 35.24 | - | 20.65 | - |
| `COC(=O)CCNC(=O)c1nnn(-c2ccccc2)c1C(F)(F)F` | 1.625 | 0.1142 | 3.946 | -2.885 |
| `Cc1ccc(-n2nnc(CC(=O)N3CCSCC3)c2C)cc1` | 11.34 | 3.728 | 13.57 | 12.73 |
| `Cc1cc(CN2CCC(C3CCN(CCc4ccccc4)C3)CC2)[nH]n1` (stereo not drawn) | 16.23 | -0.9046 | 20.47 | 8.712 |
| `c1ccc2c(c1)CC(Cc1cc(N3CCCC3)cnn1)CO2` (stereo not drawn) | 10.38 | 4.872 | -13.96 | 1.966 |
| `C[C@@H](O)CNC(=O)c1nc(Cc2c(Cl)cccc2Cl)no1` | -11.78 | 2.771 | 1.797 | -3.066 |
| `Cc1cc(C)nc(Nc2cccc(C3CCCN(CC4CC4)C3)n2)n1` (stereo not drawn) | -13.97 | - | -12.77 | 7.843 |
| `Cc1ccccc1CN1C[C@@H](CN(C)CCO)[C@@H](CO)C1` | 5.953 | -3.717 | 2.54 | 2.727 |
| `N#CCCN(Cc1ccco1)C(=O)CCCc1ccccc1` | -31.05 | -3.25 | -3.852 | 0.7426 |
| `COCCN1CCN(CCCc2nnnn2-c2ccccc2)CC1` | 21.67 | -5.759 | 9.103 | 10.49 |
| `COCCN1CCN(Cc2c(C)noc2C)Cc2cccnc21.O=C(O)C(F)(F)F.O=C(O)C(F)(F)F` | 27.92 | - | 1.821 | - |
| `CN1CCCC1c1ccc(N2CCOCC2)cn1` (stereo not drawn) | 17.77 | -4.4 | -18.68 | 7.732 & 22.37 |
| `COCC(=O)NCc1cc(=O)n2c(n1)CN(C)CCC2.O=C(O)C(F)(F)F` | 39.76 | - | -49.33 | - |
| `C=C(C)CN1CCN(Cc2cnc(OC)nc2)CC1` | 5.63 | 9.569 | 17.98 | 5.068 |
| `Cn1cc(-c2c(C#N)c(N)nc3c2CCc2[nH]ccc2-3)cc1C#N` | -11.21 | 21.48 | 2.307 | 11.97 |
| `CC1CN(c2ccc(CNC(=O)c3ccn(C)c(=O)c3)cn2)CCO1` (stereo not drawn) | 19.73 | 2.449 | -0.7703 | 7.171 |
| `O=C(NCc1nnc2n1C(C(=O)NC1CC1)CC2)c1ccc(Cl)cc1Cl` (stereo not drawn) | -1.226 | -4.062 | 12.2 | 2.368 |
| `CCOc1ccccc1C(CC(=O)N(C)C)NC(C)=O` (stereo not drawn) | -0.3819 | 1.043 | -4.862 | 10.51 |
| `O=C(C1SCCc2ccccc21)N1CCC(O)CC1` (stereo not drawn) | 32.85 | -1.168 | 0.2363 | 4.114 |
| `O=C(O)[C@H]1CN(Cc2ccccc2)C[C@@H]1C(=O)c1ccccc1` | 20.8 | -0.3264 | -10.54 | 14.04 |
| `Cc1ccnc(C(NC(=O)c2ncoc2C)C2CC2)n1` (stereo not drawn) | 22.95 | 10.63 | -7.465 | -19.33 |
| `CN(Cc1nc(Cc2cccc(C(F)(F)F)c2)no1)C(C1CC1)C1CC1` | 23.25 | 1.096 | -4.225 | 4.938 |
| `CC(NC(=O)c1ccnn1C)c1ccc(OCC2CC2)c(F)c1` (stereo not drawn) | 27.82 | -1.814 | 5.163 | 3.579 |
| `Cc1nc(CCN2CCCCC2)n(-c2ccc(F)cc2)n1` | -29.85 | -0.8683 | 1.275 | 3.851 |
| `Cc1c[nH]c(CN(C)C(=O)[C@@]23CNC[C@@H]2CN(c2ncccn2)C3)n1` | - | 4.839 | - | 4.436 |
| `O=C(CN(C1=NCCCC1)c1ccccc1)c1ccc(OC(F)F)cc1` | - | 2.113 | - | 7.848 |
| `O=C(O)C(F)(F)F.[H][C@@]12CCN(Cc3cc(C)on3)C[C@]1(C(=O)NC(C)C)CCO2` | 11.74 | - | -3.104 | - |
| `COc1cccc(CC2CCCN2CCCC#N)c1` (stereo not drawn) | -32.05 | 0.805 | -10.49 | -6.4 |
| `[H][C@@]12CCN(C(=O)c3ccnnc3)C[C@@]1([H])O[C@@H](c1ccncn1)C2` | 26.71 | - | 4.816 | - |
| `COC(=O)CC1CCN(C(=O)c2ccc(C)cc2)CC1` | -4.102 | 2.09 | - | -1.337 |
| `CNC(=O)CCS(=O)(=O)Cc1cc(Cl)c2c(c1)OCCCO2` | 17.32 | -4.011 | 0.1136 | 1.05 |
| `Cc1cnn(CCC(=O)N(CC2CN(C)CCO2)c2nccs2)c1` (stereo not drawn) | 8.31 | -2.022 | 17.52 | 4.479 |
| `O=C(c1ccc(C2CCCN2)s1)N1CCN2CCC1CC2` (stereo not drawn) | 21.66 | -1.051 | 4.909 | 1.542 |
| `O=C(Cc1ccsc1)N1CCC(n2nc(-c3ccco3)ccc2=O)CC1` | -7.905 | 3.595 | -3.395 | -1.667 |
| `Cc1cnc(C(=O)N2CCCC(n3cncn3)C2)cn1` (stereo not drawn) | 6.471 | 8.471 | 5.034 | -0.3727 |
| `O=C(O)c1cccc(CC2CCN(c3cnccn3)CC2)c1` | 0.05326 | -4.163 | -20.33 | 3.271 |
| `Cc1c(F)cccc1S(=O)(=O)NC(C)(C)CN` | - | 1.005 | - | 1.29 |
| `O=C(O)C(F)(F)F.[H][C@@]12CN(CC)C[C@]1([H])[C@@H](OC)CCN2C(=O)Cc1ccsc1` | 6.125 | - | -16.16 | - |
| `[H][C@@]12CCCO[C@]1([H])[C@H](n1cccn1)CN2Cc1nccs1` | 21.1 | - | -15.9 | - |
| `[H][C@]12CCCN(c3ncc(C)cn3)[C@@]1([H])CN(S(C)(=O)=O)C2` | -1.002 | - | 7.651 | - |
| `CN1CCC(NC(=O)c2cc(Br)cc(Cl)c2O)C1=O` (stereo not drawn) | -10.93 | 4.996 | 15.37 | 2.265 |
| `COc1cccc(COCC(=O)N2CCCCCC2)c1` | 14.48 | 3.704 | 7.341 | 1.901 |
| `Cc1cccnc1CNC(=O)CC1C(=O)NCCN1CC(C)(C)C` (stereo not drawn) | -24.84 | 3.25 | -49.35 | -1.684 |
| `Cc1csc(CCCNC(=O)[C@H]2CNC[C@@H](C(=O)N3CCCC3)C2)n1` | 13.89 | 0.2467 | 10.87 | -12.69 |
| `CCc1nc(CN2CCCN(C(=O)c3ccccc3)CC2)cs1` | -25.18 | -0.6224 | -9.399 | 3.218 |
| `COCc1nc(CN(CC(N)=O)C(C)C)cs1` | 19.06 | -4.126 | -19.88 | -1.837 |
| `O=S(=O)(c1ccccc1)N1CCOCC(Cc2cccnc2)C1` (stereo not drawn) | 15.72 | -4.863 | 6.4 | -10.44 |
| `CC(NC(=O)NCCCOC1CCCCC1)c1nncn1C` (stereo not drawn) | 21.96 | -0.8746 | 5.17 | 13.83 |
| `[H][C@]12CN(C(=O)C3CC3)CCN1C[C@H](c1ccccc1)[C@H]2C(=O)OCC` | -10.28 | - | -6.877 | - |
| `Cn1cnc2c1CCN(CCCOc1ccc(S(C)(=O)=O)cc1)C2` | 16.28 | -2.142 | 1.679 | -3.018 |
| `O=C(N1CCOCC1)N1CC[C@@](O)(c2ccccc2)[C@H]2CCCC[C@@H]21` | - | 1.652 | - | 0.2484 |
| `Cc1cc(C(=O)N2CCc3nnc(N)cc3C2)c(C)n1-c1cccnc1` | 1.663 | -4.776 | 2.418 | -2.089 |
| `NS(=O)(=O)c1ccc(CNCC(=O)NCc2ccc(Cl)cc2Cl)cc1` | 4.804 | 2.171 | -4.61 | -0.2525 |

The values are deposited in ChEMBL (CHEMBL3988442, “University of Dundee, Small-Polar-MMV Screening Library” (2021)).